Some results were stated once for a whole list of compounds, not compound by compound.
How the values were obtained:
Myzus persicae = assay: Test for control efficacy on Myzus persicae (foliar application, potted Chinese cabbage); details: 500 ppm, foliar application to Chinese cabbage, 6 days after application
Laodelphax striatellus = details: 500 ppm, rice seedlings dipped 30 seconds, 3rd-instar larvae, 8 days after inoculation
Plutella xylostella = details: 500 ppm, seedlings with laid eggs dipped about 30 seconds, 25° C., 6 days after dip treatment

CCS(=O)(=O)c1cc(/C(=N/OCCSC)n2cncn2)cnc1-c1nc2cc(C(F)(F)C(F)(F)F)nnc2n1C [Compound 1-22]
A (the control rate is 100%.): control efficacy (control rate), activity level (Myzus persicae) | insecticidal efficacy (corrected mortality rate), activity level (Laodelphax striatellus) | insecticidal efficacy (corrected mortality rate), activity level (Plutella xylostella)

CCS(=O)(=O)c1cc(/C(=N/OCCS(C)(=O)=O)OC)cnc1-c1nc2cc(C(F)(F)C(F)(F)F)nnc2n1C [Compound 1-3, Methyl 5-ethylsulfonyl-N-(2-methylsulfonylethoxy)-6-(6-pentafluoroethyl-3-methyl-3H-imidazo[4,5-c]pyridazin-2-yl)nicotinimidate]
A (the control rate is 100%.): control efficacy (control rate), activity level (Myzus persicae) | insecticidal efficacy (corrected mortality rate), activity level (Laodelphax striatellus) | insecticidal efficacy (corrected mortality rate), activity level (Plutella xylostella)

CCS(=O)(=O)c1cc(/C(=N/OCCSC)SC)cnc1-c1nc2cc(C(F)(F)C(F)(F)F)nnc2n1C [Compound 1-19, Methyl 5-ethylsulfonyl-N-(2-methylthioethoxy)-6-(6-pentafluoroethyl-3-methyl-3H-imidazo[4,5-c]pyridazin-2-yl)nicotinyl thioimidate]
A (the control rate is 100%.): control efficacy (control rate), activity level (Myzus persicae) | insecticidal efficacy (corrected mortality rate), activity level (Laodelphax striatellus) | insecticidal efficacy (corrected mortality rate), activity level (Plutella xylostella)

CCS(=O)(=O)c1cc(/C(=N/OCCSC)OC)cnc1-c1nc2cc(C(F)(F)C(F)(F)F)nnc2n1C [Compound 1-1, methyl 5-ethylsulfonyl-N-(2-methylthioethoxy)-6-(6-pentafluoroethyl-3-methyl-3H-imidazo[4,5-c]pyridazin-2-yl)nicotinimidate]
A (the control rate is 100%.): control efficacy (control rate), activity level (Myzus persicae) | insecticidal efficacy (corrected mortality rate), activity level (Laodelphax striatellus) | insecticidal efficacy (corrected mortality rate), activity level (Plutella xylostella)

From patent publication US12486272B2 (NIHON NOHYAKU CO., LTD., priority 2019, dated 2025)
